What all share (format): cell-based
Series [1] relates to set of Gram-negative and Gram-positive bacteria, including drug-resistant clinical isolates. The note with it: ratio of G-MIC of native AR to G-MIC of the peptide; * = higher overall activity than AR. On the procedure:
To obtain a global assessment of the effect on antimicrobial activity, the geometric mean of the MIC (G-MIC) was calculated, and from this, the overall improvement or impoverishment with respect to arenicin-1. In general, inverting the symmetry or decreasing the charge had detrimental effects.
The overall activity against a set of tested bacterial strains was determined by way of the commonly used geometric mean of measured MIC values. […] At the same time, the geometric mean can still discriminate antimicrobial agents showing minor variations in activity; in other words, it has a better “resolution” than the median MIC (MIC50). Some mathematical basics for choosing the geometric mean for antimicrobial activity comparison are further discussed in the Supplementary Chapter S3.

Series [2] concerns human erythroleukemia K-562 cells. As to conditions: for SI1 improvement ratio in comparison with AR: ratio of SI1 of the peptide to SI1 of native AR; for SI1 assessment IC50/G-MIC: selectivity index: K-562 IC50 / G-MIC. Here is the method:
The standard MTT ((3-(4,5-Dimethylthiazol-2-yl)-2,5-diphenyltetrazolium bromide) test was used for the examination of the cytotoxic activity of AMPs towards human erithroleukemia cells K-562. The cells were purchased from Biolot (Saint Petersburg, Russia) and were grown in RPMI 1640 medium (Biolot, Saint Petersburg, Russia) supplemented with glutamine and 10% FCS. Before the experiment, the culturing medium was replaced with serum-free RPMI 1640. Serial dilutions of the peptides in RPMI were plated in sterile 96-well microplates, and the target cells were dispensed to the microplates (10^5 cells/well in RPMI 1640). The plates were incubated for 24 h at 37 °C under 5% CO2. Cell-free media and cells incubated without peptides served as controls. Four hours before the incubation ended, MTT in PBS (5 mg/mL) was added to each well. After the incubation was stopped by adding isopropanol/ 0.04 M HCl, the optical density was measured at 540 nm, subtracting the background absorbance at 690 nm. Toxicity was determined by nonlinear regression analysis of the corresponding dose–response curves using the Sigma Plot 11 program to calculate the IC50 values (the concentration of the test substance that reduced the OD540 capacity by 50%).

For another series, the system named is human red blood cells. The note with it: for SI2 improvement ratio in comparison with AR: ratio of SI2 of the peptide to SI2 of native AR; for SI3 improvement ratio in comparison with AR: ratio of SI3 of the peptide to SI3 of native AR; for SI3 assessment HC15/G-MIC: selectivity index: HC15 / G-MIC; for SI2 assessment HC50/G-MIC: selectivity index: HC50 / G-MIC.

This is an account of results in publication PMC6627698, “Redesigning Arenicin-1, an Antimicrobial Peptide from the Marine Polychaeta Arenicola marina, by Strand Rearrangement or Branching, Substitution of Specific Residues, and Backbone Linearization or Cyclization” (Marine Drugs, 2019).

The structures appear in SMILES notation. Residues, ends and D or L forms follow the SMILES beside them. Some results are limits rather than exact numbers.

With `CC(C)C[C@@H]1NC(=O)[C@H](C(C)C)NC(=O)CNC(=O)[C@H](CCCNC(=N)N)NC(=O)[C@H](C(C)C)NC(=O)[C@H](CC(C)C)NC(=O)[C@H](C(C)C)NC(=O)[C@H](CCCNC(=N)N)NC(=O)[C@H](Cc2ccc(O)cc2)NC(=O)[C@H](CCCNC(=N)N)NC(=O)[C@H](CCCNC(=N)N)NC(=O)[C@@H](NC(=O)[C@@H](N)Cc2c[nH]c3ccccc23)CSSC[C@@H](C(=O)N[C@@H](Cc2c[nH]c3ccccc23)C(=O)O)NC(=O)[C@H](CCCNC(=N)N)NC(=O)[C@H](CCCNC(=N)N)NC(=O)[C@H](Cc2ccc(O)cc2)NC(=O)[C@H](CCCNC(=N)N)NC(=O)[C@H](C(C)C)NC1=O` [ARs-C] (HELM PEPTIDE1{W.C.R.R.Y.R.V.L.V.R.G.V.L.V.R.Y.R.R.C.W}$PEPTIDE1,PEPTIDE1,2:R3-19:R3$$$V2.0; N-terminus assumed), in series [1], the “G-MIC improvement ratio in comparison with AR” value (shortened to “G-MIC improvement ratio”) turned out to be 0.8. Besides, in series [2], the “SI1 improvement ratio in comparison with AR” value (“SI1 improvement ratio” for short) is given as 0.5 and the “SI1 assessment IC50/G-MIC” value is 3.6. In addition, in the series on human red blood cells, the “SI2 improvement ratio in comparison with AR” value is on record as 0.8, the “SI3 improvement ratio in comparison with AR” value (from here on “SI3 improvement ratio”) stood at 1.0, the “SI3 assessment HC15/G-MIC” value was determined as 3.7 and the “SI2 assessment HC50/G-MIC” value is 20.6.
As for `CC(C)[C@@H]1NC(=O)[C@H](CCCNC(=N)N)NC(=O)[C@H](C(C)C)NC(=O)[C@H](Cc2ccc(O)cc2)NC(=O)[C@H](C)NC(=O)[C@H](Cc2ccc(O)cc2)NC(=O)[C@H](C(C)C)NC(=O)[C@@H](NC(=O)[C@H](Cc2c[nH]c3ccccc23)NC(=O)[C@@H](N)CCCNC(=N)N)CSSC[C@H](NC(=O)[C@H](Cc2c[nH]c3ccccc23)NC(=O)[C@@H](N)CCCNC(=N)N)C(=O)N[C@@H](C(C)C)C(=O)N[C@@H](Cc2ccc(O)cc2)C(=O)N[C@@H](C)C(=O)N[C@@H](Cc2ccc(O)cc2)C(=O)N[C@@H](C(C)C)C(=O)N[C@@H](CCCNC(=N)N)C(=O)N[C@@H](C(C)C)C(=O)N[C@H](C(=O)N[C@@H](CN)C(N)=O)CCCNC1=O` [ARs-N-B] (HELM PEPTIDE1{R.W.C.V.Y.A.Y.V.R.V.[Orn].[NC[C@H](N[*:1])C(=O)[*:2]].[am]}|PEPTIDE2{R.W.C.V.Y.A.Y.V.R.V}$PEPTIDE1,PEPTIDE2,3:R3-3:R3|PEPTIDE1,PEPTIDE2,11:R3-10:R2$$$V2.0), the “G-MIC improvement ratio” value in series [1] was 0.5. In series [2], the “SI1 improvement ratio” value amounted to 0.9 and the “SI1 assessment IC50/G-MIC” value came to 6.0. Also, in the series with human red blood cells, the “SI2 improvement ratio in comparison with AR” value is above 0.6, the “SI3 improvement ratio” value was 0.6, the “SI3 assessment HC15/G-MIC” value was 2.1 and the “SI2 assessment HC50/G-MIC” value is listed as above 13.7.
For the compound `CC(C)[C@@H]1NC(=O)CNC(=O)[C@H](CCCNC(=N)N)NC(=O)[C@H](C(C)C)NC(=O)[C@H](CCCNC(=N)N)NC(=O)[C@H](C(C)C)NC(=O)[C@H](Cc2ccc(O)cc2)NC(=O)[C@H](C)NC(=O)[C@H](Cc2ccc(O)cc2)NC(=O)[C@H](C(C)C)NC(=O)[C@@H](NC(=O)[C@H](Cc2c[nH]c3ccccc23)NC(=O)[C@H](CCCNC(=N)N)NC(=O)[C@@H](N)CCCNC(=N)N)CSSC[C@@H](C(=O)N[C@@H](Cc2c[nH]c3ccccc23)C(=O)O)NC(=O)[C@H](C(C)C)NC(=O)[C@H](Cc2ccc(O)cc2)NC(=O)[C@H](C)NC(=O)[C@H](Cc2ccc(O)cc2)NC(=O)[C@H](C(C)C)NC(=O)[C@H](CCCNC(=N)N)NC1=O` [ARs-N] (HELM PEPTIDE1{R.R.W.C.V.Y.A.Y.V.R.V.R.G.V.R.V.Y.A.Y.V.C.W}$PEPTIDE1,PEPTIDE1,4:R3-21:R3$$$V2.0; N-terminus assumed), the “G-MIC improvement ratio” value in series [1] is given as at most 0.1. Moreover, in series [2], the “SI1 improvement ratio” value is given as at most 0.1 and the “SI1 assessment IC50/G-MIC” value is listed as at most 0.7. Further, in the series on human red blood cells, the “SI3 improvement ratio” value is listed as at most 0.2 and the “SI3 assessment HC15/G-MIC” value is at most 0.9.
